Results as given in PubChem BioAssay AID588590 (National Center for Advancing Translational Sciences (NCATS), 2011).
Hit rate of the full screen: of about 390,000 compounds, about 4,000 (1%) were called active. Inconclusive results, whose numbers are uncertain, are shown with a selection of clear calls. The call rests on the fitted dose curve; in most records, active means well fitted inhibition curve with a large enough effect; inconclusive means small, poorly fitted or top-dose-only effect, or another doubt; inactive means no such curve, though single readings can be large or run the other way. Potencies beside an inconclusive call are fits to weak or partial responses and may not hold up.

Sequences of proteins named here, by UniProt entry; tags and fusion partners are left off. A change or cut given only in a name is not applied to a line headed by its entry.
UniProt Q9UNA4: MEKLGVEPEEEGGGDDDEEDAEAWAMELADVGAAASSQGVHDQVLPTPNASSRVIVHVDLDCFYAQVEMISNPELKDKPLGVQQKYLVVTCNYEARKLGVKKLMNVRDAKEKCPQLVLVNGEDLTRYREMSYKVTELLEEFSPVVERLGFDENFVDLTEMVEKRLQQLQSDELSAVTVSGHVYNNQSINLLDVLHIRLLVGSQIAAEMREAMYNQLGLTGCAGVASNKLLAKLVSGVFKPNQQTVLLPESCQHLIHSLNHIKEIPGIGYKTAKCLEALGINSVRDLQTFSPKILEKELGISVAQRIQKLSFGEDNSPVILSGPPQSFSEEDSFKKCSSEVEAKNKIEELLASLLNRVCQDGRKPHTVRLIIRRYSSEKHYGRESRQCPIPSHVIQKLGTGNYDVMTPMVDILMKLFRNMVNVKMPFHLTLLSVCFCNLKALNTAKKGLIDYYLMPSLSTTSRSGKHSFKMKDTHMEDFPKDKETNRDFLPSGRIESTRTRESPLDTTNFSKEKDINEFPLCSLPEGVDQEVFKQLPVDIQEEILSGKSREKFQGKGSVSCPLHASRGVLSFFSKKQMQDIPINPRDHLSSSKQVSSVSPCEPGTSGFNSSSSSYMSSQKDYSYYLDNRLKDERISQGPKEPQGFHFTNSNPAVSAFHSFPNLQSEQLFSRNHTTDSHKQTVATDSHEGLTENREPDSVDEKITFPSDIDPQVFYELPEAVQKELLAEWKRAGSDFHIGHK

biological target: DNA polymerase iota (Homo sapiens) (UniProt Q9UNA4); test: qHTS for Inhibitors of Polymerase Iota; conditions: Pol iota fluorescent replication assay, 10 min; series mostly up to 115 µM
In short: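 Pol iota at 10 nM preincubated 15 min with compounds at room temperature; reaction started with fluorescent substrate, 50 nM final. Fluorescence read kinetically at 0 and 10 min; buffer-only wells as negative control.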
Potency means the concentration at half of the fitted maximal effect.

Potency, inactive:
Cc1[nH][nH]c(=O)c1C(c1ccc(O)c(Br)c1)c1c(C)[nH][nH]c1=O
Cc1nc(C)c(-c2ccc(SCC(=O)Nc3cccc(F)c3)nn2)s1
CC(C(=O)N1CCCCCC1)N(c1ccc(Cl)cc1)S(C)(=O)=O (stereo not drawn)
CC(=O)Nc1sc(C)c(C)c1C(=O)OCC(=O)N(C)c1c(N)n(Cc2ccccc2)c(=O)[nH]c1=O
O=C1CCCC(O)=C1N=Nc1ccc(Cl)c(Cl)c1

Potency, inconclusive:
Cc1ccc(C(=O)NCc2nnc3c(C(F)(F)F)cc(Cl)cn23)o1 3.16 µM [inhibitor, partial curve, poor fit]
NS(=O)(=O)c1ccc(CNC(=O)c2ccc(NS(=O)(=O)c3ccc4[nH]c(=O)[nH]c4c3)cc2)cc1 79.4 µM [inhibitor, partial curve, poor fit]
O=S(=O)(Nc1cccc2c1ccc1cccn12)c1cccs1 35.5 µM [inhibitor, full curve]
O=C1/C(=C\c2ccco2)SC(=S)N1c1ccc(O)cc1 22.4 µM [inhibitor, full curve, poor fit]
O=C(Nc1nc(-c2ccncc2)cs1)c1ccco1 28.2 µM [inhibitor, full curve]
Cc1cc2c(c(=O)o1)C(C13C=CC(CC1)C3)C(C#N)=C(N)O2 (stereo not drawn) 12.6 µM [inhibitor, full curve, poor fit]
Cc1ccc(S(=O)(=O)N2[C@@H](c3ccc(Br)cc3)C(C(=O)O)=CC[C@H]2c2cccs2)cc1 0.708 µM [inhibitor, full curve, poor fit]
CCC1CCCCN1S(=O)(=O)c1c(C)n(C)c(=O)n(C)c1=O (stereo not drawn) 28.2 µM [inhibitor, partial curve, poor fit]
Fc1ccc(-c2nc3ccccc3[nH]2)cc1 89.1 µM [inhibitor, partial curve, poor fit]
Cc1ccc(C(=O)Nc2ccc(F)cc2)cc1S(=O)(=O)N1CCCCCC1 79.4 µM [inhibitor, partial curve]
Cc1c(CCO)c(=O)n(-c2ccccc2)n1S(=O)(=O)c1ccc(Cl)cc1 3.16 µM [inhibitor, partial curve, poor fit]

A run of entries from further up, as a working copy:
Potency, inconclusive:
Cc1cc2c(c(=O)o1)C(C13C=CC(CC1)C3)C(C#N)=C(N)O2 (stereo not drawn) 12.6 µM [inhibitor, full curve, poor fit]
Cc1ccc(S(=O)(=O)N2[C@@H](c3ccc(Br)cc3)C(C(=O)O)=CC[C@H]2c2cccs2)cc1 0.708 µM [inhibitor, full curve, poor fit]

Next part:

Potency, active:
Cn1c(=O)c2[nH]c(SCCN3CCOCC3)nc2n(C)c1=S 17.8 µM
COc1cc(/C=C2\SC(=S)N(NS(=O)(=O)c3ccccc3)C2=O)ccc1O 31.6 µM
